Data reported in the supplement of paper PMC12823440, “Inhibitors supercharge kinase turnover through native proteolytic circuits” (Nature, 2025).
The other results are listed elsewhere or left out. Hit calls seldom repeat between salt and free forms of one compound.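 Kinases were expressed as nanoluciferase fusions in K562 cells and luminescence was read every 4 h between 2 and 18 h as percent of control, DMSO set to 100% and a positive control to 0%. A time point counts as decreased when the signal drops significantly (2 sigma). The hit call is the authors' own, does not follow from the count of time points alone, and its rule is not shown.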

Sequences of proteins named here, by UniProt entry; tags and fusion partners are left off. A change or cut given only in a name is not applied to a line headed by its entry.
UniProt P29597: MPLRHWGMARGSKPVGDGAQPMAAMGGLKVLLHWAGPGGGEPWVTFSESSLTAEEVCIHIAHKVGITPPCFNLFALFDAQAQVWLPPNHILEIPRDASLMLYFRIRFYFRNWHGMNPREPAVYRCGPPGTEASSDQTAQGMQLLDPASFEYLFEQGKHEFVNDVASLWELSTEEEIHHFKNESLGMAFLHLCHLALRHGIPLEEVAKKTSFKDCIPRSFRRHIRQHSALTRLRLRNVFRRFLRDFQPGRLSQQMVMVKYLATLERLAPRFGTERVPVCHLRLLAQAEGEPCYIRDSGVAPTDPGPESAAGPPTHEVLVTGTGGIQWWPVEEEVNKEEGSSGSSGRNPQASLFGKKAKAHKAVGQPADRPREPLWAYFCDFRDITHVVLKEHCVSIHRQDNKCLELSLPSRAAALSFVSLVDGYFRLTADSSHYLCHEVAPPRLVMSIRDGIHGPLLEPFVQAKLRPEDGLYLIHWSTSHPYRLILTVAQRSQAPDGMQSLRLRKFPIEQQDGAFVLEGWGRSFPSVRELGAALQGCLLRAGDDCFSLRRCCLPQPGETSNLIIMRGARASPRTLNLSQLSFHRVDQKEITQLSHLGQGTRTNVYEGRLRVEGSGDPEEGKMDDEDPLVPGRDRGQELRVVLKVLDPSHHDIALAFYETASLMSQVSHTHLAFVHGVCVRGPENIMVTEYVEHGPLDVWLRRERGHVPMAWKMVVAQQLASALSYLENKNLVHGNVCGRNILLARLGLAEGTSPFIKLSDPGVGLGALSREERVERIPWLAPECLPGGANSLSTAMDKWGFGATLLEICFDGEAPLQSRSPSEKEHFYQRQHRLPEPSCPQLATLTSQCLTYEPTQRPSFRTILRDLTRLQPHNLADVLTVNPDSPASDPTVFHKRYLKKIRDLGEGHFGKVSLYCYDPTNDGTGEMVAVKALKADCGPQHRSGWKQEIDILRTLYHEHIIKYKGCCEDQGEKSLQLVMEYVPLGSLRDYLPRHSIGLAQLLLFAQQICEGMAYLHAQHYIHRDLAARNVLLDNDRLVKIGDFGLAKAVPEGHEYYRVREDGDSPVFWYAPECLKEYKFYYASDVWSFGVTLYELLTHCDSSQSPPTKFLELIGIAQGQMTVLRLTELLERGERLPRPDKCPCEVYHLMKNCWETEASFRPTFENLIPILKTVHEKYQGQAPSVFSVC

Each compound was assayed against TYK2 (UniProt P29597) (assay: kinase-Nluc reporter destabilization hit call (1 = scored as downregulated) (binary); higher = compound decreases kinase abundance). Details: K562; 2-18 h.

kinase-Nluc reporter destabilization hit call, inactive:
O=C(Nc1ccccc1C(=O)NC1CCCCNC1=O)c1cc2ccccc2s1 (stereo unspecified) (10 µM) 0
CCOc1cc(=O)[nH]cc1-c1ccc(CC(=O)Nc2cc(C(C)(C)C(F)(F)F)on2)c(F)c1 (10 µM) 0
Cn1cnc2c(F)c(Nc3ccc(Br)cc3F)c(C(=O)NOCCO)cc21 [Binimetinib] (10 µM) 0
Cc1ccc(NC(=O)N2CCN(c3nc(N)nc4sc(-c5cccnc5)nc34)CC2)cc1 [PI4KIII beta inhibitor 3] (10 µM) 0
CC(C1CC1)n1cnc2c(NCc3cccc(C(F)(F)F)c3)nc(NCCN(C)C)nc21 (stereo unspecified) (10 µM) 0
CCn1c(N)c(C(=O)NC)c(=O)c2ccc(C#CC(C)(O)COC)nc21 (stereo unspecified) (10 µM) 0
N#Cc1cc(N2CCC(C(=O)N3N=CC[C@H]3c3cc(F)cc(F)c3)CC2)ncn1 (10 µM) 0
CN1CCN(Cc2ccc(-c3cn(C4CCC(O)CC4)c4nc(NCCC5CC5)ncc34)cc2)CC1 (stereo unspecified) (2.5 µM) 0
COc1ccc(Cl)cc1N(CC(=O)Nc1ccc2c(c1)OCO2)S(=O)(=O)c1ccccc1 (2.5 µM) 0
CS[C@@]1(C(=O)Nc2ccc3[nH]nc(-c4ccc(OC(C)C)nc4)c3c2)CCN(CC(=O)N2CC=C(c3ccc(-c4ncn(C)n4)cc3)CC2)C1 (2.5 µM) 0
CCc1cc(Nc2nccc(-c3c(-c4ccc(OC)c(C(=O)Nc5c(F)cccc5F)c4)nc4ccccn34)n2)c(OC)cc1N1CCC(N2CCN(S(C)(=O)=O)CC2)CC1 (2.5 µM) 0

Quoted from the entries so far (2 entries):
kinase-Nluc reporter destabilization hit call, inactive:
CS[C@@]1(C(=O)Nc2ccc3[nH]nc(-c4ccc(OC(C)C)nc4)c3c2)CCN(CC(=O)N2CC=C(c3ccc(-c4ncn(C)n4)cc3)CC2)C1 (2.5 µM) 0
CCc1cc(Nc2nccc(-c3c(-c4ccc(OC)c(C(=O)Nc5c(F)cccc5F)c4)nc4ccccn34)n2)c(OC)cc1N1CCC(N2CCN(S(C)(=O)=O)CC2)CC1 (2.5 µM) 0
